Among the data in paper PMC4326827, “Biophysical Studies on Interactions and Assembly of Full-size E3 Ubiquitin Ligase” (The Journal of Biological Chemistry, 2014) are binding values, retold here.

Results are given in words; binding and its absence hold for the method and conditions named. Some entries that bind do so weakly or less than the wild type.

Assay [1] deals with Recombinant human Cul5 (amino acids 1-780) (human) (UniProt Q93034). Kind of assay: native MS; nano-electrospray TWIM-MS (Synapt G2), samples after gel filtration exchanged into 500 mM ammonium acetate pH 7.0, 5-10 μM; both purified. On the technique in general: SEC sorts molecules by how far they enter the pores of the column.
For assay [2] the target is unchanged. The assay is described as follows: SEC-MALS; Superdex 200 10/300 GL, 50 mM HEPES pH 7.5, 150 mM NaCl, 0.5 mM TCEP; SOCS2-EloBC 130 μM, Cul5NTD 110 μM, SOCS2-EloBC-Cul5NTD 90 μM, Cul5-Rbx2 30 μM, SOCS2-EloBC-Cul5-Rbx2 35 μM; both purified.

In the case of “Recombinant human Rbx2 (amino acids 1-113) (from UniProt Q9UBF6 1-113)”, the binding entry in assay [1] and in assay [2] was “binds” each time.
